Laboratory results as given in US9717803B2, “Enzymatic conjugation of polypeptides” (Innate Pharma, priority 2011, dated 2017).
At least one structure is not confirmed: it was looked up by name or label, or the drawing left a doubt. Some compounds share one wording; it may come from a single statement.

Biological target: T1, bacterial transglutaminase (BTG) (Streptomyces mobaraensis, UniProt P81453)
T1 construct: purchased Zedira, Darmstadt, Germany
T1 sequence (P81453 77-407): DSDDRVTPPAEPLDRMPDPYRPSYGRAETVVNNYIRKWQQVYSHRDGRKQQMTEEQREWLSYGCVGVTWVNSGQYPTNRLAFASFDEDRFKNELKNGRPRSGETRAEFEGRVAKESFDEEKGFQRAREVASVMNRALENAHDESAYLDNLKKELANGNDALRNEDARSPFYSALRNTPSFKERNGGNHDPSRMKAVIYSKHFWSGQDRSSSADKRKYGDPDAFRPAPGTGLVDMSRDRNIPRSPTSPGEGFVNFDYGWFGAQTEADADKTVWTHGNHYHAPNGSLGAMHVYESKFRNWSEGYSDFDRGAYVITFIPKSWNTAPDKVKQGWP
Format: biochemical
Settings: for BTG coupling to two glutamines per heavy chain, result in words: chADC1 N297Q and SGN-35 N297Q, 80 eq ligand, 6 U/ml BTG, 1 mg/ml mAb, 37° C.

SMILES: CC(=O)SCC(=O)NCCCCCN [C2-SAc, S-(2-((5-aminopentyl)amino)-2-oxoethyl)ethanethioate]
- BTG coupling to two glutamines per heavy chain, result in words: complete coupling to two glutamines on all heavy chains

SMILES: CC(=O)SCCCCCC(=O)NCCCCCN [C6-SAc, S-(6-((5-aminopentyl)amino)-6-oxohexyl)ethanethioate]
- BTG coupling to heavy chain, result in words (PNGaseF-deglycosylated chADC1, 6 U/mL BTG (optimized: 80 eq ligand, 1 mg/ml mAb, 37° C.)): quantitative
- BTG coupling to two glutamines per heavy chain, result in words: complete coupling to two glutamines on all heavy chains

SMILES: CC(=O)SCCOCCOCCOCCOCCC(=O)NCCCCCN [PEG-SAc, S-(21-amino-15-oxo-3,6,9,12-tetraoxa-16-azahenicosyl)ethanethioate]
- BTG coupling to two glutamines per heavy chain, result in words: complete coupling to two glutamines on all heavy chains
